The target of one test is FLAG-p50 (NF-κB p50) (UniProt P19838). The experiment in a line: native gel or EMSA; extracts of A293 cells transfected with FLAG-p65 and FLAG-p50 alone or together; 32P-labeled MIR155HG -178 or MHC1 κB-site probe; heterodimer seen as a DNA-bound band of intermediate mobility, supershifted by two p65 antibodies; 30 min at room temperature, 25 mM Tris-HCl pH 7.4, 100 mM KCl; 5% non-denaturing polyacrylamide gel.

By UniProt entry, the sequences of proteins in these tests, tags left out. Residues count along the entry.
UniProt P19838, residues 1-433: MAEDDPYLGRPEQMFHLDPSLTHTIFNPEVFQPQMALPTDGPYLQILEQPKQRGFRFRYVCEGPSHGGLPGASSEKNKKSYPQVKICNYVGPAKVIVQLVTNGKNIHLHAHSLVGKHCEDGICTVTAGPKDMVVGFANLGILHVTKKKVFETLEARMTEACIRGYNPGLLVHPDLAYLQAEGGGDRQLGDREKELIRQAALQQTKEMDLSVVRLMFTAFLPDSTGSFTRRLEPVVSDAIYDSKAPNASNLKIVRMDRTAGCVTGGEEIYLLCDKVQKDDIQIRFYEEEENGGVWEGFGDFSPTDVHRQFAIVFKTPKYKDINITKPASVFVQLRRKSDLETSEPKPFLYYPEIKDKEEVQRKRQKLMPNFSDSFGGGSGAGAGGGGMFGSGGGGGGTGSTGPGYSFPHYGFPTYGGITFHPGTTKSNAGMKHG
UniProt Q04206: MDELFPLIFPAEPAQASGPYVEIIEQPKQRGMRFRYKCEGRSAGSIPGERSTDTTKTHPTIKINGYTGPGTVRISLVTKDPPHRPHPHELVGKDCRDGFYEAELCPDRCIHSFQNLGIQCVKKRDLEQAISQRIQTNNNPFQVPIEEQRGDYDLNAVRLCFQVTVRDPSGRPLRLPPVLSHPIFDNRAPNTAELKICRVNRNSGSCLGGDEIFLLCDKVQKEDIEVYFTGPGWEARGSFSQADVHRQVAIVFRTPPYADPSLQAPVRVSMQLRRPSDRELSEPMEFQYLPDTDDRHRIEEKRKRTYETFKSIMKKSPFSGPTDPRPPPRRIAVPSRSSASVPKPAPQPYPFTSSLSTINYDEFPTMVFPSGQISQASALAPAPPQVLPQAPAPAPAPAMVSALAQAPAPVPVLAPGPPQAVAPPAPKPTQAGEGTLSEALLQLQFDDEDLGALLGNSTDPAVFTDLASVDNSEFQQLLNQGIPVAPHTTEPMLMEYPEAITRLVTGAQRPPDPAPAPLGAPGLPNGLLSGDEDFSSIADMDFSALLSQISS

In test [1] the target is NF-κB p50, endogenous in BJAB cells (human (endogenous in BJAB)) (UniProt P19838). Put plainly: native gel or EMSA; nuclear extracts of BJAB cells treated with 5 μg/ml LPS for 0 or 60 min; 32P-labeled MIR155HG -178 probe; new DNA-bound band co-migrating with the A293 p50/p65 control and supershifted by p65 antibody.

No constants are given. Whether binding was seen depends on the method and setting. Some entries that bind do so weakly or less than the wild type.

As for “FLAG-p65 (NF-κB p65) (from UniProt Q04206 1-551)”, the binding entry in the test with FLAG-p50 (NF-κB p50) is listed as “binds”.

Take “NF-κB p65, endogenous in BJAB cells (from UniProt Q04206 1-551)”: the binding entry in test [1] is “binds”.
